The reference is the same well before dosing, and untreated signal decays as well.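 Labels refer to human fibroblasts, largely primary: uterine (C12385, HUF), lung (H6013), bone (Hs27A), adrenal (HADF), skin (WS1), plus mammary HMF and breast cancer-associated Hs343T. Cancer lines are basal-like or mesenchymal-like triple-negative breast cancer. The paper counts as hits responses shifting over 3x the replicate standard deviation. The tissue of the other fibroblasts is not given here.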
System: MDAMB436
Assay: relative JC-1 red fluorescence (viability) vs pre-drug, coculture with fibroblast (fraction); higher = more viable cancer cells
Procedure: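 JC-1 labelled TNBC cells cocultured 1:1 (1,500 cells each) with CellTrace Violet stained primary or stromal fibroblasts in 384-well plates in FluoroBrite medium, treated with one of 42 anticancer drugs at 0.1, 1, 10 or 100 uM. JC-1 red fluorescence (mitochondrial integrity in cancer cells only) was read by plate reader every 8 h for 72 h. Values are normalised to each well's pre-drug value. The stock of one drug was tenfold lower, so its dose labels may be too high.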

Nc1ncn([C@@H]2O[C@H](CO)[C@@H](O)[C@H]2O)c(=O)n1 [Azacitidine]
relative JC-1 red fluorescence
Details	8 h	16 h	24 h	32 h	40 h	48 h	56 h	64 h	72 h
0.1 µM, coculture fibroblast: C12385	0.7609	0.721	0.697	0.623	0.59	0.581	0.577	0.571	0.587
0.1 µM, coculture fibroblast: H6013	0.812	0.79	0.789	0.79	0.788	0.824	0.797	0.793	0.754
0.1 µM, coculture fibroblast: H6019	0.7401	0.7131	0.686	0.617	0.589	0.567	0.541	0.51	0.49
0.1 µM, coculture fibroblast: H6076	0.72	0.696	0.7246	0.708	0.727	0.717	0.757	0.766	0.759
0.1 µM, coculture fibroblast: H6231	0.7	0.683	0.729	0.668	0.684	0.661	0.666	0.657	0.652
0.1 µM, coculture fibroblast: HADF	0.831	0.811	0.795	0.76	0.7501	0.77	0.729	0.725	0.692
0.1 µM, coculture fibroblast: HCFa	0.793	0.773	0.753	0.73	0.728	0.761	0.711	0.707	0.661
0.1 µM, coculture fibroblast: HCPF	0.749	0.7392	0.779	0.73	0.737	0.718	0.715	0.714	0.715
0.1 µM, coculture fibroblast: HHSteC	0.844	0.86	0.87	0.855	0.88	0.866	0.862	0.855	0.815
0.1 µM, coculture fibroblast: HMF	0.7678	0.744	0.757	0.722	0.726	0.71	0.74	0.731	0.735
0.1 µM, coculture fibroblast: HPFa	0.8426	0.8266	0.81437	0.7815	0.7935	0.8215	0.756	0.739	0.6762
0.1 µM, coculture fibroblast: HUF	0.78	0.706	0.658	0.589	0.537	0.517	0.501	0.486	0.482
0.1 µM, coculture fibroblast: Hs5	0.7244	0.7273	0.745	0.708	0.73	0.713	0.747	0.727	0.739
0.1 µM, coculture fibroblast: Hs27A	0.776	0.77	0.773	0.763	0.758	0.839	0.754	0.752	0.688
0.1 µM, coculture fibroblast: Hs343T	0.749	0.721	0.725	0.69	0.697	0.68	0.691	0.691	0.695
0.1 µM, coculture fibroblast: WS1	0.786	0.742	0.731	0.66	0.636	0.623	0.616	0.603	0.606
1 µM, coculture fibroblast: C12385	0.784	0.675	0.68	0.611	0.574	0.554	0.546	0.536	0.543
1 µM, coculture fibroblast: H6013	0.804	0.738	0.7133	0.697	0.68	0.69	0.652	0.631	0.58
1 µM, coculture fibroblast: H6019	0.7194	0.669	0.647	0.568	0.534	0.5116	0.474	0.43813	0.407
1 µM, coculture fibroblast: H6076	0.725	0.668	0.666	0.616	0.596	0.57	0.582	0.58	0.56
1 µM, coculture fibroblast: H6231	0.7613	0.674	0.6684	0.592	0.566	0.535	0.5233	0.49	0.4599
1 µM, coculture fibroblast: HADF	0.7987	0.701	0.676	0.659	0.639	0.656	0.605	0.604	0.57
1 µM, coculture fibroblast: HCFa	0.79	0.712	0.682	0.65	0.627	0.63414	0.5761	0.5551	0.5029
1 µM, coculture fibroblast: HCPF	0.773	0.714	0.702	0.638	0.618	0.579	0.553	0.529	0.504
1 µM, coculture fibroblast: HHSteC	0.8108	0.756	0.71	0.673	0.663	0.668	0.607	0.579	0.526
1 µM, coculture fibroblast: HMF	0.753	0.69	0.673	0.635	0.619	0.589	0.577	0.562	0.545
1 µM, coculture fibroblast: HPFa	0.8929	0.8111	0.8016	0.766	0.7587	0.7745	0.695	0.6766	0.6102
1 µM, coculture fibroblast: HUF	0.8109	0.696	0.668	0.592	0.538	0.5	0.472	0.447	0.445
1 µM, coculture fibroblast: Hs5	0.763	0.72	0.715	0.669	0.657	0.611	0.635	0.605	0.6
1 µM, coculture fibroblast: Hs27A	0.796	0.739	0.694	0.683	0.663	0.7241	0.6235	0.62	0.5536
1 µM, coculture fibroblast: Hs343T	0.726	0.657	0.632	0.587	0.562	0.528	0.522	0.498	0.498
1 µM, coculture fibroblast: WS1	0.754	0.685	0.683	0.605	0.566	0.553	0.535	0.519	0.516

Source: the supplement of paper PMC6078165
